Results are given in words; binding and its absence hold for the method and conditions named. Binding seen in cells or lysates may run through a third protein. Some results given as binding are weak or reduced against the parent protein; the word gives no strength. Tags and fused reporters may be left off the sequences shown.
Biological target: T1, ABCG2-FLAG (ATP Binding Cassette Subfamily G Member 2, plasmid ABCG2-3FLAG) (UniProt Q9UNQ0)
T1 sequence: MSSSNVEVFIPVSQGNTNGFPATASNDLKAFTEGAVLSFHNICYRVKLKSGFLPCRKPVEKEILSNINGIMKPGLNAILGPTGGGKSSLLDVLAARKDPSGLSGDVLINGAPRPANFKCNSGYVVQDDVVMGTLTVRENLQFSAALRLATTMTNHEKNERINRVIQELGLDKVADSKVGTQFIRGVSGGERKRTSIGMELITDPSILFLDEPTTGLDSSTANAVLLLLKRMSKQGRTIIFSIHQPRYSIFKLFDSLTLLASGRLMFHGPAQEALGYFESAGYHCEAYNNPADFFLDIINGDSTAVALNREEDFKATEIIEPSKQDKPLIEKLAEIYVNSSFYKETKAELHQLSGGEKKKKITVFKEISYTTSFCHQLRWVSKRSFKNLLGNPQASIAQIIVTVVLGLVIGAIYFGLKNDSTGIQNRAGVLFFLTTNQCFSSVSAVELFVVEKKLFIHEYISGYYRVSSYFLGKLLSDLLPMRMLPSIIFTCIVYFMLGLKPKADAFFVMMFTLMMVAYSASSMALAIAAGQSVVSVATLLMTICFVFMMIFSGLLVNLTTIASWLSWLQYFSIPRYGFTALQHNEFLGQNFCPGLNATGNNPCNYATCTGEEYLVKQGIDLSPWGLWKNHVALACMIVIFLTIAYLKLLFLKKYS
Test: co-IP; HEK293 lysate (1% TritonX-100, 10 mM HEPES pH 7.4, 142.5 mM KCl, 5 mM MgCl2, 1 mM EDTA, 10% glycerol); FLAG tag antibody and Protein G Sepharose beads overnight at 4 °C; immunoblot

- binding: binds
B1: endogenous NUMB protein (HEK293) (protein, UniProt P49757 1-651)
chain: MNKLRQSFRRKKDVYVPEASRPHQWQTDEEGVRTGKCSFPVKYLGHVEVDESRGMHICEDAVKRLKAERKFFKGFFGKTGKKAVKAVLWVSADGLRVVDEKTKDLIVDQTIEKVSFCAPDRNFDRAFSYICRDGTTRRWICHCFMAVKDTGERLSHAVGCAFAACLERKQKREKECGVTATFDASRTTFTREGSFRVTTATEQAEREEIMKQMQDAKKAETDKIVVGSSVAPGNTAPSPSSPTSPTSDATTSLEMNNPHAIPRRHAPIEQLARQGSFRGFPALSQKMSPFKRQLSLRINELPSTMQRKTDFPIKNAVPEVEGEAESISSLCSQITNAFSTPEDPFSSAPMTKPVTVVAPQSPTFQANGTDSAFHVLAKPAHTALAPVAMPVRETNPWAHAPDAANKEIAATCSGTEWGQSSGAASPGLFQAGHRRTPSEADRWLEEVSKSVRAQQPQASAAPLQPVLQPPPPTAISQPASPFQGNAFLTSQPVPVGVVPALQPAFVPAQSYPVANGMPYPAPNVPVVGITPSQMVANVFGTAGHPQAAHPHQSPSLVRQQTFPHYEASSATTSPFFKPPAQHLNGSAAFNGVDDGRLASADRHTEVPTGTCPVDPFEAQWAALENKSKQRTNPSPTNPFSSDLQKTFEIEL

Source: publication PMC11494200
